Source: ChEMBL document CHEMBL3988442, “University of Dundee, Small-Polar-MMV Screening Library” (2021).

By UniProt entry, the sequences of proteins in these tests, tags left out.
UniProt E9BF75, entry or part of it: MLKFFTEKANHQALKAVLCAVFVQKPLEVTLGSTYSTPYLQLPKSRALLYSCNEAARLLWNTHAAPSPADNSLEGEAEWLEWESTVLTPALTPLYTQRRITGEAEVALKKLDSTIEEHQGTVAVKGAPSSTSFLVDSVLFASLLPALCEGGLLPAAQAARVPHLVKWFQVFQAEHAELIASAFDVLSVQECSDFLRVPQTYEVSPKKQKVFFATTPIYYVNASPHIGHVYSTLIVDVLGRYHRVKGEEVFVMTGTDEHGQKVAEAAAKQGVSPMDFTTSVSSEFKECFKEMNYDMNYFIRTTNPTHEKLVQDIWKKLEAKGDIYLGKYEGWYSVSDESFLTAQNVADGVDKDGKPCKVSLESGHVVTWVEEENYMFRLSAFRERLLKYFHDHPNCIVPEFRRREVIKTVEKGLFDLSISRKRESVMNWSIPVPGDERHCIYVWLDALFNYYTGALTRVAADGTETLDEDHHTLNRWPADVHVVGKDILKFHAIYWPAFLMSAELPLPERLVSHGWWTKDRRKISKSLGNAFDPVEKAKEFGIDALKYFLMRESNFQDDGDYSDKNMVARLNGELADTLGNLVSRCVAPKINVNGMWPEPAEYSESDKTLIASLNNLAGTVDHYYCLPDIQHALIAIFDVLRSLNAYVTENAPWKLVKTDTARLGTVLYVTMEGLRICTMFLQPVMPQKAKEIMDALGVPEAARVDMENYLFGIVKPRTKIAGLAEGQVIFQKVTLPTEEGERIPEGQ

A: 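Primary screen of methionyl-tRNA synthetase; the read-out is not stated. Target: Methionyl-tRNA synthetase (putative), Leishmania donovani (UniProt E9BF75). The test concentration is not given. The values are filed as inhibition. About 68,000 compounds were tested under these conditions; 0.035% (about 24) showed 50% or more at least once.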
B: 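Assay on Mycobacterium tuberculosis, filed only as a heat shock assay from Cornell; the read-out is not stated. The concentration is filed as 10 mM, unlikely as a test dose, so the dose is not known. Higher reads as stronger inhibition (inferred: compounds with an IC50 in retests scored well above the rest). About 69,000 compounds were tested under these conditions; 1.4% (about 930) showed 50% or more at least once.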

All values are in %. How 0% and 100% were set is not recorded. Most values in the screen are low, and negative values occur. Compounds were drawn at random from those tested, without regard to their results.

CCCc1cc(NCCN2CCNC2=O)n2nccc2n1 gave A: 3.922%; B: -6.778%.
O=C(NCC(F)(F)F)c1coc(COc2cccc(F)c2)n1 gave A: 7.216%; B: -8.199%.
O=C(Cn1cccnc1=O)NCCc1ccc2c(c1)OCCO2 gave A: 7.692%; B: -8.554%.
Cc1cnn(C2CN(CC(=O)NCCc3cccs3)C2)c1 gave A: 20%; B: -0.06065%.
CC1(C)Cc2nc(C(C)(C)C)ncc2C(NC(=O)C2(N)CC2)C1 (stereo not drawn) gave A: 8.669%; B: -27.41%.
CS(=O)(=O)N1CCC2(CC1)CC(NCc1ccco1)c1ccccc12 (stereo not drawn) gave A: -2.933%.
Cc1nc(Nc2cnccn2)cc(C2CCN(CCO)C2)n1 (stereo not drawn) gave A: 14.24%.
CC(C)COC1CC2(CCN(C(=O)Cc3ccccn3)CC2)C1.O=C(O)C(F)(F)F gave B: 4.377%.
Cc1nc(C)n(CC2CCCN2Cc2nnc(-c3ccco3)o2)n1 (stereo not drawn) gave A: 0%; B: -20.58%.
CCOC(=O)Cc1csc(NC(=O)c2cc(=O)c(OC)c[nH]2)n1 gave A: 14.85%; B: 26.29%.
Cc1ccc(CN2CC[C@H]3[C@H](CO[C@H]3CN(C)C)C2)o1 gave A: 19.61%.
O=C(O)C(F)(F)F.[H][C@@]12CCN(CC3CC3)C[C@@]1([H])O[C@H](c1nc(C)no1)C2 gave B: 10.65%.
CN(C)c1cc2c(nn1)CCN(C(=O)c1cc3c(s1)CCC3)C2 gave A: 13.64%; B: -11.49%.
O=C(CCc1nc2cc(Br)cnc2[nH]1)NCc1cccnc1 gave A: 16.06%; B: -24.02%.
C[C@@H]1CN(S(=O)(=O)c2ccc(F)cc2Cl)C[C@]1(C)O gave A: 8.906%; B: 6.996%.
CC(C)NC(=O)CNC(=O)C12CCC(=O)N1c1cc(Cl)ccc1S2 (stereo not drawn) gave A: 5.16%; B: 11.54%.
COc1c(CNCc2ccc(C(=O)N3CCCC3)cc2)c(C)nn1C gave A: 20.22%.
O=C(c1cnccn1)N1CCCC2(CCN(Cc3ccsc3)CC2)C1 gave A: 6.849%.
CC1(C)CC(N(Cc2ccccc2)Cc2c[nH]cn2)CC(C)(C)N1 gave A: 13.71%.
Cc1csc(NC(=O)Cn2nc(C)ccc2=O)n1 gave A: -3.118%; B: -1.06%.
Cc1cnn(CCNCC(O)c2ccc(C(F)(F)F)cc2)c1 (stereo not drawn) gave A: 12.66%; B: 7.898%.
CN(Cc1ccccc1)CC(O)Cn1cnc2ccsc2c1=O (stereo not drawn) gave A: 9.202%; B: -1.734%.
CCNc1c(NC(=O)NC(C)C)c(=O)oc2ccccc12 gave A: 9.375%; B: -41.71%.
CN1CCc2[nH]cnc2C12CCN(C(=O)CCc1cccs1)CC2 gave A: 3.736%; B: -30.79%.
O=C(c1cc(=O)[nH]c(=O)[nH]1)N1CCCCC1c1ccc(F)cc1 (stereo not drawn) gave A: 13.27%; B: 9.544%.
COc1nc2ccn(CCNc3cc(C)ccn3)c(=O)c2cc1C#N gave A: 13.14%; B: 14.85%.
Cc1nccn1CCC1CCCCN1C(=O)c1ccc(N(C)C)cc1 (stereo not drawn) gave A: -3.352%; B: -58.67%.
Cc1ncsc1C(=O)N(C)Cc1ccsc1 gave A: 13.11%; B: -1.704%.
[H][C@@]12CCCO[C@]1([H])[C@H](N(C)Cc1cccnc1)CN2Cc1ccccn1 gave B: -26.33%.
O=C(NC[C@H]1OC[C@@H](NC(=O)c2ccccc2)[C@@H]1O)c1ccncc1 gave A: 15.04%; B: -10.07%.
COCC1CN(S(=O)(=O)N(C)C)Cc2ncn(CC3CC3)c21 (stereo not drawn) gave A: 19.29%.
Cc1ccoc1C(=O)N1CC(C(=O)N2CCOCC2)C2(CCOCC2)C1 (stereo not drawn) gave A: -0.7092%; B: 7.664%.
O=C(Cc1c(F)cccc1Cl)Nc1cc(N2CCOCC2)ncn1 gave A: 12.15%; B: 5.856%.
O=C(Nc1nnn[nH]1)c1cc(-c2ccc(Br)s2)n[nH]1 gave A: 3.89%; B: 12.23%.
CCN1CC2(CCC1=O)CCN(Cc1nncn1C(C)C)CC2 gave A: 19.37%; B: 12.62%.
CNS(=O)(=O)c1cccc(CNc2cc(C(F)(F)F)ccn2)c1 gave A: 8.497%; B: 29.31%.
NC(=O)COc1ccc(CN2CCNC(C(=O)NC3CC3)C2)cc1Cl (stereo not drawn) gave A: 7.035%; B: -0.1907%.
O=C1[C@H]2CN(CC3CCOCC3)C[C@H]2CN1c1ccsc1 gave A: 21.3%.
COc1ccccc1-c1cc(NC(=O)CC2CCS(=O)(=O)C2)[nH]n1 (stereo not drawn) gave A: 16.43%; B: -8.312%.
Cc1cc(NCCC(=O)NC2CCCCC2)nc(-c2ccncc2)n1 gave A: 23.08%; B: -4.813%.
O=C(N1CCCCC1)N1CCCC1c1nnc2n1CCNC2 (stereo not drawn) gave A: 6.857%; B: -22.34%.
Cc1ncccc1NC(=O)[C@@H]1CCO[C@@H]2CCN(c3ccncn3)C[C@H]21 gave A: 15.93%.
Cc1nnc(CSCc2ccc(OCC(F)(F)F)nc2)o1 gave A: 2.09%; B: -16.11%.
CSc1ccc(-c2nc(CN3CCNCC3C)c(C)o2)cc1 (stereo not drawn) gave A: 8.06%; B: -8.033%.

The last 2 entries again:

Compound	A	B
Cc1nnc(CSCc2ccc(OCC(F)(F)F)nc2)o1	2.09	-16.11
CSc1ccc(-c2nc(CN3CCNCC3C)c(C)o2)cc1 (stereo not drawn)	8.06	-8.033